# Reference: the supplement of paper PMC8728848
# The other results are listed elsewhere or left out.
# Columns and labels:
# Test in all cases: glycan array binding signal (z-score within array); higher = stronger binding
# Details in all cases: glycan notation: IUPAC condensed, linker removed
# [1] = target: Fuc(a1-2)Gal(b1-4)GlcNAc(b1-3)Gal(b1-4)GlcNAc(b1-2)Man(a1-3)[Fuc(a1-2)Gal(b1-4)GlcNAc(b1-3)Gal(b1-4)GlcNAc(b1-2)Man(a1-6)]Man(b1-4)GlcNAc(b1-4)GlcNAc
# Procedure, shortened: (§1)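 Glycan array data were curated from 3228 arrays in the Consortium for Functional Glycomics database and kept only where the protein sequence was available. Glycan names were converted to IUPAC-condensed notation, and columns mapping to the same glycan were averaged. The binding signal is a within-array Z-score, averaged across arrays of the same protein sequence at different concentrations or buffers and across linkers. Negative Z-scores can be read as non-binding.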
# [2] = target: Fuc(a1-2)Gal(b1-4)GlcNAc(b1-3)Gal(b1-4)GlcNAc(b1-3)Gal(b1-4)GlcNAc
# Procedure, shortened: as §1
# [3] = target: Fuc(a1-2)Gal(b1-4)GlcNAc(b1-3)GalNAc
# Procedure, shortened: as §1
# [4] = target: Fuc(a1-2)Gal(b1-4)GlcNAc(b1-3)[Fuc(a1-2)Gal(b1-4)GlcNAc(b1-6)]GalNAc
# Procedure, shortened: as §1
# [5] = target: Fuc(a1-2)Gal(b1-4)GlcNAc(b1-3)[Fuc(a1-3)[Gal(b1-4)]GlcNAc(b1-6)]Gal(b1-4)Glc
# Procedure, shortened: as §1
# [6] = target: Fuc(a1-2)Gal(b1-4)GlcNAc(b1-6)GalNAc
# Procedure, shortened: as §1
# [7] = target: Fuc(a1-2)Gal(b1-4)GlcNAc6S
# Procedure, shortened: as §1
# [8] = target: Fuc(a1-2)Gal(b1-4)[Fuc(a1-3)]GlcNAc
# Procedure, shortened: as §1
# [9] = target: Fuc(a1-2)Gal(b1-4)[Fuc(a1-3)]GlcNAc(b1-2)Man(a1-3)[Fuc(a1-2)Gal(b1-4)[Fuc(a1-3)]GlcNAc(b1-2)Man(a1-6)]Man(b1-4)GlcNAc(b1-4)[Fuc(a1-6)]GlcNAc
# Procedure, shortened: as §1
# [10] = target: Fuc(a1-2)Gal(b1-4)[Fuc(a1-3)]GlcNAc(b1-2)[Fuc(a1-2)Gal(b1-4)[Fuc(a1-3)]GlcNAc(b1-4)]Man(a1-3)[Fuc(a1-2)Gal(b1-4)[Fuc(a1-3)]GlcNAc(b1-2)Man(a1-6)]Man(b1-4)GlcNAc(b1-4)GlcNAc
# Procedure, shortened: as §1
# [11] = target: Fuc(a1-2)Gal(b1-4)[Fuc(a1-3)]GlcNAc(b1-3)Gal(b1-4)[Fuc(a1-3)]GlcNAc
# Procedure, shortened: as §1
# [12] = target: Fuc(a1-2)Gal(b1-4)[Fuc(a1-3)]GlcNAc(b1-3)Gal(b1-4)[Fuc(a1-3)]GlcNAc(b1-3)Gal(b1-4)[Fuc(a1-3)]GlcNAc
# Procedure, shortened: as §1
# [13] = target: Fuc(a1-2)Gal(b1-4)[Fuc(a1-3)]GlcNAc(b1-3)GalNAc
# Procedure, shortened: as §1
# [14] = target: Fuc(a1-2)Gal(b1-4)[Fuc(a1-3)]GlcNAc(b1-3)[Neu5Ac(a2-6)Gal(b1-4)GlcNAc(b1-6)]Gal(b1-4)Glc
# Procedure, shortened: as §1
# [15] = target: Fuc(a1-2)Gal3S(b1-4)GlcNAc
# Procedure, shortened: as §1
# [16] = target: Fuc(a1-2)Gal6S(b1-3)GlcNAc
# Procedure, shortened: as §1
# [17] = target: Fuc(a1-2)Gal6S(b1-3)GlcNAc6S
# Procedure, shortened: as §1
# [18] = target: Fuc(a1-2)Gal6S(b1-4)Glc
# Procedure, shortened: as §1
# [19] = target: Fuc(a1-2)Gal6S(b1-4)Glc6S
# Procedure, shortened: as §1
# [20] = target: Fuc(a1-2)[Gal(a1-3)]Gal
# Procedure, shortened: as §1
# [21] = target: Fuc(a1-2)[Gal(a1-3)]Gal(b1-3)GalNAc
# Procedure, shortened: as §1
# [22] = target: Fuc(a1-2)[Gal(a1-3)]Gal(b1-3)GalNAc(b1-3)Gal(a1-4)Gal(b1-4)Glc
# Procedure, shortened: as §1
# [23] = target: Fuc(a1-2)[Gal(a1-3)]Gal(b1-3)GlcNAc
# Procedure, shortened: as §1
# [24] = target: Fuc(a1-2)[Gal(a1-3)]Gal(b1-3)GlcNAc(b1-2)Man(a1-3)[Fuc(a1-2)[Gal(a1-3)]Gal(b1-3)GlcNAc(b1-2)Man(a1-6)]Man(b1-4)GlcNAc(b1-4)GlcNAc
# Procedure, shortened: as §1
# [25] = target: Fuc(a1-2)[Gal(a1-3)]Gal(b1-3)GlcNAc(b1-2)Man(a1-3)[Fuc(a1-2)[Gal(a1-3)]Gal(b1-3)GlcNAc(b1-2)Man(a1-6)]Man(b1-4)GlcNAc(b1-4)[Fuc(a1-6)]GlcNAc
# Procedure, shortened: as §1
# [26] = target: Fuc(a1-2)[Gal(a1-3)]Gal(b1-3)GlcNAc(b1-3)GalNAc
# Procedure, shortened: as §1
# [27] = target: Fuc(a1-2)[Gal(a1-3)]Gal(b1-3)GlcNAc(b1-6)GalNAc
# Procedure, shortened: as §1
# [28] = target: Fuc(a1-2)[Gal(a1-3)]Gal(b1-4)Glc
# Procedure, shortened: as §1
# [29] = target: Fuc(a1-2)[Gal(a1-3)]Gal(b1-4)GlcNAc
# Procedure, shortened: as §1
# [30] = target: Fuc(a1-2)[Gal(a1-3)]Gal(b1-4)GlcNAc(b1-2)Man
# Procedure, shortened: as §1
binder,measurement,setting,value
"pTFF2 (Sus scrofa), P01359 (protein) KPAACRCSRQDPKNRVNCGFPGITSDQCFTSGCCFDSQVPGVPWCFKPLPAQESEECVMEVSARKNCGYPGISPEDCAARNCCFSDTIPEVPWCFFPMSVEACHY",glycan array binding signal (z-score),[1],0.716
same,glycan array binding signal (z-score),[2],1.39
same,glycan array binding signal (z-score),[3],1.05
same,glycan array binding signal (z-score),[4],-0.074
same,glycan array binding signal (z-score),[5],-0.937
same,glycan array binding signal (z-score),[6],-2.82
same,glycan array binding signal (z-score),[7],0.433
same,glycan array binding signal (z-score),[8],-0.508
same,glycan array binding signal (z-score),[9],0
same,glycan array binding signal (z-score),[10],0.821
same,glycan array binding signal (z-score),[11],-1.44
same,glycan array binding signal (z-score),[12],-1.71
same,glycan array binding signal (z-score),[13],-0.208
same,glycan array binding signal (z-score),[14],0.053
same,glycan array binding signal (z-score),[15],-0.403
same,glycan array binding signal (z-score),[16],-0.54
same,glycan array binding signal (z-score),[17],-0.991
same,glycan array binding signal (z-score),[18],0.931
same,glycan array binding signal (z-score),[19],0.533
same,glycan array binding signal (z-score),[20],-0.204
same,glycan array binding signal (z-score),[21],-1.09
same,glycan array binding signal (z-score),[22],-0.181
same,glycan array binding signal (z-score),[23],-0.692
same,glycan array binding signal (z-score),[24],0.289
same,glycan array binding signal (z-score),[25],-1.25
same,glycan array binding signal (z-score),[26],1.31
same,glycan array binding signal (z-score),[27],-0.319
same,glycan array binding signal (z-score),[28],-0.294
same,glycan array binding signal (z-score),[29],-0.538
same,glycan array binding signal (z-score),[30],-0.157

# Reformatted as tab-separated lines: entries from further up
binder	measurement	setting	value
pTFF2 (Sus scrofa), P01359 (protein) KPAACRCSRQDPKNRVNCGFPGITSDQCFTSGCCFDSQVPGVPWCFKPLPAQESEECVMEVSARKNCGYPGISPEDCAARNCCFSDTIPEVPWCFFPMSVEACHY	glycan array binding signal (z-score)	[11]	-1.44
same	glycan array binding signal (z-score)	[12]	-1.71
